Reference: PMC11567897

Legend:
SNAP-Staufen = molecular target: T1, SNAP-Staufen (UniProt P25159); experiment: EMSA; settings: EMSA: 50 nM RNA, 20 mM Tris-HCl pH 7.5, 150 mM NaCl, 2 mM MgCl2, 5% glycerol, 0.5 mM TCEP, 20 min at room temperature; 0.8% agarose 0.5x TBE gel at 4 C; recombinant protein; protein details: SNAP; label: atto633 (amino-allyl UTP, 1:10); probe letters rebuilt from the primers and the genome
T1 sequence (looked up, limits assumed): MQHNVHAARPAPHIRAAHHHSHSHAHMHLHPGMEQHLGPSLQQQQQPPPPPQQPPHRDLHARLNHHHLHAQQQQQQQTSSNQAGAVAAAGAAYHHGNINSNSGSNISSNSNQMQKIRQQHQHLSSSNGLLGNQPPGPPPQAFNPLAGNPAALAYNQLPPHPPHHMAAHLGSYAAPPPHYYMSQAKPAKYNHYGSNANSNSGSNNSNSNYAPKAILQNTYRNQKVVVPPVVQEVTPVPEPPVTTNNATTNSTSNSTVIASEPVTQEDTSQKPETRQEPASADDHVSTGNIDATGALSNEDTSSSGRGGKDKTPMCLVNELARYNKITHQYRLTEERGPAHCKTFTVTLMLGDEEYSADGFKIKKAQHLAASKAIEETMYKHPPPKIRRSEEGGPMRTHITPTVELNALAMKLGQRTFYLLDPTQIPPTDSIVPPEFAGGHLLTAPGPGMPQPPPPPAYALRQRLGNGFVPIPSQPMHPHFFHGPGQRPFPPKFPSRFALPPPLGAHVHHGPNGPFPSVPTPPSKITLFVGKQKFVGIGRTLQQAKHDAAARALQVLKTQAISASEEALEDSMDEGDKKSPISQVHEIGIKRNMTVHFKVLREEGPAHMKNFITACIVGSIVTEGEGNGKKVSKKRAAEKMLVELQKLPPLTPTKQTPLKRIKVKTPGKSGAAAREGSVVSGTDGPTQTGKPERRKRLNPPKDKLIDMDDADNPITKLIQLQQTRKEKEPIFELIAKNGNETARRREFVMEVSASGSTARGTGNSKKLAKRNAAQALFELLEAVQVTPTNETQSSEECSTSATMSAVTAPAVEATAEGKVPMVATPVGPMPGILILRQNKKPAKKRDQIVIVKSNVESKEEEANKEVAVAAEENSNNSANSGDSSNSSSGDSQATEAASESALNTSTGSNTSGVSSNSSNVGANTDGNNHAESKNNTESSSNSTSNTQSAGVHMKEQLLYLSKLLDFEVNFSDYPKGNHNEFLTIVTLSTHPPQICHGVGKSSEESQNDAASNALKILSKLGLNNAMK

[1] = molecular target: T2, Bruno-EGFP (BrunoFL-EGFP) (UniProt O02374); experiment: EMSA; settings: 2 mM Mg2+, EMSA: 50 nM RNA, 20 mM Tris-HCl pH 7.5, 150 mM NaCl, 2 mM MgCl2, 5% glycerol, 0.5 mM TCEP, 20 min at room temperature, 0.8% agarose 0.5x TBE gel at 4 C, recombinant protein, residues 1-604, label: atto633 (amino-allyl UTP, 1:10), probe letters rebuilt from the primers and the genome
T2 sequence (looked up): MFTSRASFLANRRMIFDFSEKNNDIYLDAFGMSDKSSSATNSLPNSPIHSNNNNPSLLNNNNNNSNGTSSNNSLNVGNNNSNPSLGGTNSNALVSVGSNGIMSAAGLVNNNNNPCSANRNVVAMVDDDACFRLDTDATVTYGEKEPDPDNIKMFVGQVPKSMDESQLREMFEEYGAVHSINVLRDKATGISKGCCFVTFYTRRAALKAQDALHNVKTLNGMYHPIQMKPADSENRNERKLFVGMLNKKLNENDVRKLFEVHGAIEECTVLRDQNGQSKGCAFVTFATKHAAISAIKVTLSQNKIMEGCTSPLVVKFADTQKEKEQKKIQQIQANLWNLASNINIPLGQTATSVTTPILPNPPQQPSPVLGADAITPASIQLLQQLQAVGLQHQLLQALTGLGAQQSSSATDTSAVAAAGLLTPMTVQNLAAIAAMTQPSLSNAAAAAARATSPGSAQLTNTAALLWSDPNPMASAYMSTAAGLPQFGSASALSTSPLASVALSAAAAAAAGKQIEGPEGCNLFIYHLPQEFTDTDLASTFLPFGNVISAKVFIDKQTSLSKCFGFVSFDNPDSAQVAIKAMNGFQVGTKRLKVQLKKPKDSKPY

## GGGUGGAAAAUUCGCUUGCACAAAAUCAACGCCGCGGCUGAUUUAUUAUUGAUGUGCUCAAGCAAAUUCA [WTOES (WT67)]
SNAP-Staufen
  binding result: binds

## GGGUGGAAAAUUCGCUUGCACAAAAUCAACGCCGCGGCUGAUUUAUUAUUGAUGUGCUCAAGCAAAUUCAAGUGAAGCAUUUGCGCGAUUUUCGUCUUUCUGUUUCCGUUUGCAAAAAAGUUUAUAAAAUGCUUACACUCUGCUGCAGACACGCCAACCGGAAGUGCGCACUAAGCGCUUGUUUGUAGCACAGUGUAGAAUUCUGGCGUAAUUUACAGCUCUACUUUAAAGUCUUCUAGAUAGCUAUCUACUAUUUAUAAACUUAUUUAUUGUCUUGAAUGUAUGUUAAUUGUAUGUAUUGAUGGUGAUCACGUUUUUUUUGUCCUAUAACAAGCUGCAAUGUAAAAUCCAAAAAAAAAAUG [WT359]
[1]
  binding result: binds

## GGGUGGAAAAUUCGCUUGCACAAAAUCAACGUUGCGGCUGAUUUAUUAUUGAUGUGCUCAAGCAAAUUCA [UUOES (UU67)]
SNAP-Staufen
  binding result: binds

## GGGUGGAAAAUUCGCUUGCACAAAAUCAACGUUGCGGCUGAUUUAUUAUUGAUGUGCUCAAGCAAAUUCAAGUGAAGCAUUUGCGCGAUUUUCGUCUUUCUGUUUCCGUUUGCAAAAAAGUUUAUAAAAUGCUUACACUCUGCUGCAGACACGCCAACCGGAAGUGCGCACUAAGCGCUUGUUUGUAGCACAGUGUAGAAUUCUGGCGUAAUUUACAGCUCUACUUUAAAGUCUUCUAGAUAGCUAUCUACUAUUUAUAAACUUAUUUAUUGUCUUGAAUGUAUGUUAAUUGUAUGUAUUGAUGGUGAUCACGUUUUUUUUGUCCUAUAACAAGCUGCAAUGUAAAAUCCAAAAAAAAAAUG [UU359]
[1]; fewer higher-order complexes than WT359
  binding result: binds

Tags and fusion partners may be left off the protein sequences shown. For some of these results: For at least one entry, the source does not settle the construct or the ends of the probe.
